± gives the half width of the 95% confidence interval. For many entries, trypsin and chymotrypsin gave values far apart.
Columns and labels:
[1] = folding stability dG unfold from trypsin proteolysis; higher = more stable
Procedure: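 Folding stability of de novo designed mini-proteins (<80 aa, no Cys; designed by TrROS, TrMRF, ProteinMPNN and the joint model) was measured by cDNA display proteolysis with trypsin and chymotrypsin. Each protease was used at 11 concentrations in a threefold dilution series plus a no-protease condition. K50 was inferred by Bayesian fitting of sequencing counts, and dG unfold was derived against a sequence-predicted unfolded-state K50 (Tsuboyama et al. method). Sequences shown include variable-length N-terminal GS-type padding (SAGGSAGG...) inside a display construct carrying a PA tag. Rows were kept only if the AF2 dimer inter-PAE was >15, to exclude likely homo-oligomers.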

[2] = folding stability dG unfold from chymotrypsin proteolysis; higher = more stable
How it was run: (§1)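 Sequencing followed digestion of designed mini-proteins with trypsin and chymotrypsin, each at 11 concentrations in threefold dilutions together with a no-protease condition. The mini-proteins were under 80 residues, had no cysteine, sat in a PA-tagged cDNA display construct, and were kept only if AlphaFold2 dimer inter-PAE was above 15. From the counts, Bayesian fitting gave K50, and unfolding free energy was derived against a sequence-predicted unfolded-state K50 and a shared folded-state K50, per protease or combined.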

[3] = folding stability dG unfold (combined trypsin and chymotrypsin); higher = more stable
How it was run: as §1

Sequence	folding stability dG unfold [1] [kcal/mol]	folding stability dG unfold [2] [kcal/mol]	folding stability dG unfold [3] [kcal/mol]
SAGGSAGGSAGNMEVIEEVEFTFPGLGVKISVSIFKTDGGIVIMIDIEIPMPPEDRKKFKSAGGSAGGSAGG [r17_431_TrROS]	0.857 ± 0.097	1.61 ± 0.18	1.25 ± 0.15
SAGGSAGGSAGGNWVMIEFNFPPGKKLKIEIPNGRDIQRHRDPDNGTLWFMIPPEAAEDFSAGGSAGGSAGG [r7_155_TrROS]	0.649 ± 0.11	0.509 ± 0.26	0.636 ± 0.27
SAGGSAGGSAGGAAKPGQPVTIQIKWEFLKMRHERTPDGGRKMEMRYKIEIEILPGMPIKSAGGSAGGSAGG [r7_919_TrROS]	2.31 ± 0.1	5.03 ± 0.26	4.67 ± 0.3
SAGKKIPAEELAKWIAKEFGFPPNMNVEVWYDPDTYTVRMPNYTIIITWEDGEIEIEIIPPKPDPEDRKSAG [r5_190_TrROS]	1.28 ± 0.023	3.59 ± 0.082	3.01 ± 0.15
SAGGSMKVERSESGTITITFSTSSPEEVEKIKEEAEKKGMKYELKYDPNNNIWTITFEVPKELLEKSAGGSA [r2_224_JUSTAS]	1.13 ± 0.085	4.41 ± 0.14	4.07 ± 0.32
EPIIPDEKDKPLLLKVLSVEVDPEIYPLPGPKGPPVLKVKVKVKMKVLAYTENKPVEKEYTFTLTFYFPPKS [r1_112_TrMRF]	3.09 ± 0.27	5.65 ± 0.37	5.16 ± 0.45
SAGAKIKVEKLEDGTYKVTITFYDKDGKKIAEKEFTVKNPKTGKYYKIRIKIEKKDGKLVIKIEIEEVSAGG [r19_185_TrROS_Hall]	3.71 ± 0.26	5.97 ± 0.32	> 6
SAGKPIKIEVEEVDPNGKVKIKVTYGNSKLEIELPAKKGGPVEFDIAVKDSDGNVYKAKATVYLPNAKKSAG [r5_296_TrMRF]	0.27 ± 0.21	3.21 ± 0.44	2.85 ± 0.6
SAGGKLLEELNVEKVEVVEVKEFSLPPLPLLVLLPTVTVTFKDGSKVKFKVLFLYDPSNPKPIVVAGSAGGS [r8_422_TrMRF]	2.42 ± 0.1	3.64 ± 0.048	3.07 ± 0.16
SAGGSAFRIKIEGPDGVTVTIPMKSPEDIAEQLKKFFGYRITDVKWKRDENGHNYIEIRIRAPPGASAGGSA [r15_447_TrROS]	3.08 ± 0.3	5.13 ± 0.24	3.82 ± 0.68
SAGGSMTLRLRVEVEVRTLTRREDGSLSLSRSRVELEVEVRLPPAPPPPPLTAEELAALLGDPELLSAGGSA [r2_340_TrROS_Hall]	1.56 ± 0.04	4.021 ± 0.021	3.52 ± 0.096
SAGGSAGGSAGKKKKVKKIEIYLFNKDGKLIAKAEIEEKDGKLIIKIEVYKTKDGKEIPISAGGSAGGSAGG [r11_874_TrROS_Hall]	2.15 ± 0.12	4.68 ± 0.12	4.24 ± 0.27
SAGTIEINYWVRPGNTPEMVANELAKHFPYIKEIEVDEIEWRRDPENGREWYRVDVEIKLKKMPPELLKSAG [r5_326_TrROS]	2.91 ± 0.57	5.31 ± 0.29	3.17 ± 0.73
SAGGKELVVLEVEIRVETEEEREKALEEAERLAQELAELFPDLKIVRVEVEVEERDGERVVRVRIVVESAGG [r13_305_TrROS_Hall]	4.4 ± 0.29	1.84 ± 0.12	4.24 ± 0.37
SAGGSAGGSADWWIIQITLQPPDGQEFHIMIPYPVDQIKDQVKNKFGFKIKDVTIFPADDLKSAGGSAGGSA [r18_107_TrROS]	1.52 ± 0.35	3.69 ± 0.32	3.05 ± 0.59
SAGGSAGGSAGVRYDPDGWIEITITVMFFEWERDPDNGKWKMKMETVTVTIRIPVPPGAKSAGGSAGGSAGG [r17_527_TrROS]	2.04 ± 0.14	4.89 ± 0.17	4.31 ± 0.4
SAGGKMTYEIKLKLKVEVNGKKYEIEIKMKVEVEFDEKTGKYTVKIKEMSLEELKKLLPDKIKKIELSAGGS [r16_522_TrROS_Hall]	1.66 ± 0.16	3.73 ± 0.038	3.09 ± 0.14
SAGGMTVKRFNSEEEAEELAKELEEAGYEVEIKPTPDYYLVYVKPPPNPPLSPEAIRIAREKPGILSESAGG [r13_8_JUSTAS]	-0.217 ± 0.15	2.467 ± 0.018	2.01 ± 0.11
SAGGKKPPKVEEIEIEIPGLKIKFVRLENGIIRAEIFNKDGKLVAEFEFTLKDGRKLTLTLELKKKKKSAGG [r13_584_TrROS_Hall]	1.45 ± 0.07	3.88 ± 0.36	2.86 ± 0.53
SAKITITKNKNGYYAIEIDLPKDVKEIVVKNKKTNKTVKIIKKNGKLYIFAKTKEQIEEILKAILEGKPISA [r9_515_TrROS_Hall]	2.45 ± 0.056	4.51 ± 0.056	3.96 ± 0.12

Part of the list above, with bars between the fields:
Sequence | folding stability dG unfold [1] [kcal/mol] | folding stability dG unfold [2] [kcal/mol] | folding stability dG unfold [3] [kcal/mol]
SAGGKMTYEIKLKLKVEVNGKKYEIEIKMKVEVEFDEKTGKYTVKIKEMSLEELKKLLPDKIKKIELSAGGS [r16_522_TrROS_Hall] | 1.66 ± 0.16 | 3.73 ± 0.038 | 3.09 ± 0.14
SAGGMTVKRFNSEEEAEELAKELEEAGYEVEIKPTPDYYLVYVKPPPNPPLSPEAIRIAREKPGILSESAGG [r13_8_JUSTAS] | -0.217 ± 0.15 | 2.467 ± 0.018 | 2.01 ± 0.11

Later entries:

Sequence	folding stability dG unfold [1] [kcal/mol]	folding stability dG unfold [2] [kcal/mol]	folding stability dG unfold [3] [kcal/mol]
SMGYLKIKLKLVFVFPENDPSKKMPIKELIKKIAEELGIEAKIPSFSLLEKDPEKGIYRVEADVEIIIPGSA [r9_107_TrMRF]	2.56 ± 0.15	4.66 ± 0.13	3.67 ± 0.41
SGPKPVPITVTRHKDHSFTITLPNGLTFTIPAPPNSWATATVDPEKGVVTVFVYNGDKTETFEIPLPPNLSA [r9_226_TrMRF]	3.05 ± 0.08	5.26 ± 0.04	5.09 ± 0.066
SAGIFRFPDGQEITIPYYARTPNGKITPSEIKEQIKEFLAEQPGVKITEIEVEHEDNYVRVTITVRLPKSAG [r5_688_TrROS]	1.46 ± 0.14	0.316 ± 0.42	1.01 ± 0.21
SAGGSAGGSAGGKPVVTIEVTVLLEDGTLVKVEIEYDANGRIVSIKVEVVRLEDLPPELLSAGGSAGGSAGG [r11_493_TrROS_Hall]	2.71 ± 0.2	-0.2 ± 0.25	1.84 ± 0.22
SAGGSAGGSAPSVTLEITVTVRTEDGYLFRVKARVEVDEDGNIHIEVEVELLPLPAAPPPPESAGGSAGGSA [r18_409_TrROS_Hall]	1.34 ± 0.16	4 ± 0.18	3.46 ± 0.27
KKIKEITIEINGLKVKITKTDDTLTIEIEIYNKKTGKKVTITAKVKKIDKKTGKIVIEAKITLPPGAKLLPS [r1_234_TrROS_Hall]	1.67 ± 0.089	3.88 ± 0.18	3.33 ± 0.29
SDIEIEMEPNPENNQWTMKIYLPKDGKPIVTIWMWPNGNVSVEKHKPNGKEKERTIPGPMPIEEALEDALSA [r9_346_TrROS]	-0.276 ± 0.25	2.01 ± 0.1	1.28 ± 0.19
SSVPVVEVKKAKIPNTGKEYIFVKVVLGGDNPEEAEKIAKKILEEEFGLKLEEMKVEKLENSYVVYYKIVGS [r1_337_TrMRF]	1.56 ± 0.033	4.214 ± 0.032	3.6 ± 0.2
SAGGEIEIVVDSEEEAKALAEELRKAGYEVEVEEVDGKWVLRIRRPPPPPLTEEERAKLAENPELAKKSAGG [r13_8_TrROS_Hall]	0.953 ± 0.092	4.51 ± 0.11	3.94 ± 0.26
SAGGFWLKNPNGHYIQVNVEVEWEPRRDPDNGKPTWEPKIEINVEVYDPNGEKRPIPEDQAKDLLKKLSAGG [r13_809_TrROS]	0.604 ± 0.073	1.64 ± 0.082	1.31 ± 0.11
SAGGSAGGSKKPPIYKIEIEIDGKKLTIEAKSKEEALKALKEELKKKYPNLKITKIKIEKVKPSAGGSAGGS [r12_429_TrROS_Hall]	1.52 ± 0.088	2.4 ± 0.14	2.14 ± 0.15
SAGGKKTLYIKLKIKIKNKKDPNKEYEFTILLKVEIEKDKKTNKYTLKAEATIFYNGKLYKITLELPSAGGS [r16_300_TrROS_Hall]	3.57 ± 0.21	5.76 ± 0.1	5.51 ± 0.22
SAMKPFPAKEAIEQILEEMEDMPLPPGQEEVEFQIRLPDDGAPVQISIERNPGKWKIEIYVGNKPIWITSAG [r14_199_TrROS]	1.7 ± 0.082	2.43 ± 0.14	2.05 ± 0.12
SAGGNYFEITLKLERKFYRYRRDDPNGDPKPERYTVERELTIRVKMPPGFDSPEDMINWIKKALKKLSAGGS [r16_359_TrROS]	2.64 ± 0.11	4.67 ± 0.15	3.72 ± 0.22
SAGGSAGGSAGGSLKVEVSEEVVGDEKYYLVTATDPVTGEKTVVPMPKEDLEKALEALASAGGSAGGSAGGS [r10_271_JUSTAS]	1.46 ± 0.04	-0.587 ± 0.11	0.716 ± 0.062
SAGGSAGGSAGGSSSSKTVSTTDTTVPITTTTTPGGSPTVSTTRTDPTSSGPVTTTTTAPSAGGSAGGSAGG [r11_305_JUSTAS]	-0.758 ± 0.079	1.32 ± 0.039	0.826 ± 0.12
SAGGSAGGSMTIEEIKKLAEELGIEKVEIEKVKDGYYKIKIYNKKTGKKIEIIIKVNKDGKIVSAGGSAGGS [r12_170_TrROS_Hall]	2.27 ± 0.17	3.9 ± 0.091	3.61 ± 0.26
SAGGSAGGAELKPVGNDPETGKTAVILLKKPDPTGLVLALEGLSPEELKKLAEIPGYEAVAVLASAGGSAGG [r6_185_TrMRF]	0.996 ± 0.037	0.213 ± 0.23	0.787 ± 0.071
SAGGSAGGSKKTYTVTEVEVKEVDGKLYLVLKVKNKETGEEKTIVLSLEDLKKLKPGDTVEIKSAGGSAGGS [r12_382_TrROS_Hall]	2.1 ± 0.21	5.05 ± 0.15	4.95 ± 0.24
SAALTLPDGTVVPTGDVTFVPGTNTLVVTLPSGTVTLPLPPDWTVEFDAETNLLTVRPLPGPSPALAALPSA [r9_551_JUSTAS]	0.112 ± 0.15	2.13 ± 0.042	1.89 ± 0.14
